Results are given in words; binding and its absence hold for the method and conditions named. In cells and extracts the contact can be indirect. Some results given as binding are weak or reduced against the parent protein; the word gives no strength.
Tests used:
[1] = target: Flag-tagged Akt (Akt1 in pCMV Tag-2B) (UniProt P31749); assay: co-IP; 293T cells cotransfected with Myc-tagged CSTP1 and Flag-tagged Akt plasmids; total protein immunoprecipitated with anti-Flag antibody, western blot with anti-CSTP1 antibodies (Fig. 7D, up panel)
[2] = target: complete s transactivated protein 1 (CSTP1), Myc-tagged, from pcDNA3.1 myc/his C-CSTP1 (human) (UniProt Q9BRF8); assay: co-IP; 293T cells cotransfected with Myc-tagged CSTP1 and Flag-tagged Akt plasmids; whole protein lysate immunoprecipitated with anti-CSTP1 antibodies, immunoblot with anti-Flag antibodies (Fig. 7D, low panel)

The chains behind the UniProt entries cited, without tags or fusion partners.
UniProt P31749: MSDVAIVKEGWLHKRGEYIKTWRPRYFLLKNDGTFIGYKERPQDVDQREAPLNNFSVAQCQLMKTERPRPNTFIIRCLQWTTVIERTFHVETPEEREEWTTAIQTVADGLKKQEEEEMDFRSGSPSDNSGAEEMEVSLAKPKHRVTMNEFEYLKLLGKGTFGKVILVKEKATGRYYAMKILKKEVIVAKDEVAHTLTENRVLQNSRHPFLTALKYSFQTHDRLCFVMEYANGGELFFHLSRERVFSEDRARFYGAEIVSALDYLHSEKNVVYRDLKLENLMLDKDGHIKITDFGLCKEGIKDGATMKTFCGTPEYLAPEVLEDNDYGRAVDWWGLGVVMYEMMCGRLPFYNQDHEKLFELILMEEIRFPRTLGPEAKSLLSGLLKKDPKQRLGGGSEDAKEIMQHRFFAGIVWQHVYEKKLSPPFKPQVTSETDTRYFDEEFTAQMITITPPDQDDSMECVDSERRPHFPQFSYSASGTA
UniProt Q9BRF8: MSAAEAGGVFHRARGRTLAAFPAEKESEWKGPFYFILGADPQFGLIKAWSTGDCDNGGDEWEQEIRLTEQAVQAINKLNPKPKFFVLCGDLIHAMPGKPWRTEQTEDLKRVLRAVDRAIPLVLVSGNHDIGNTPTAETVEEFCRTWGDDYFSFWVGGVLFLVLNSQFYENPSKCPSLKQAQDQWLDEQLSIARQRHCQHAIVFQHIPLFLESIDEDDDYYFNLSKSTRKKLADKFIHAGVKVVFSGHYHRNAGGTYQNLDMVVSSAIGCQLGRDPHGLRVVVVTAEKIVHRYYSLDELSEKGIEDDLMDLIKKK

binding [1]	binding [2]	Substance
binds	–	complete s transactivated protein 1 (CSTP1), Myc-tagged, from pcDNA3.1 myc/his C-CSTP1 (from UniProt Q9BRF8 1-314) (enzyme)
–	binds	Flag-tagged Akt (Akt1 in pCMV Tag-2B) (from UniProt P31749 1-480) (enzyme)
